Measurements published in patent publication US7582589B2, “3-carbonylaminothiophenes and their use as fungicides” (Syngenta Crop Protection, Inc., priority 2003, dated 2009).
Some results were stated once for a whole list of compounds, not compound by compound. Some compounds share one range, which may span the group rather than tell each member.

Key:
Format in all cases: in vivo
[1] = system: Botrytis cinerea; assay: Action against Botrytis cinerea/tomato (Botrytis on tomatoes); conditions: tomato plants cv. Roter Gnom, spray 0.02% active ingredient, inoculated two days after application, assessed after 4 days incubation
[2] = system: Puccinia recondita; assay: Action against Puccinia recondita/wheat (brownrust on wheat); conditions: wheat plants cv. Arina, spray 0.02% active ingredient, inoculated one day after application, assessed 10 days after inoculation
[3] = system: Septoria nodorum; assay: Action against Septoria nodorum/wheat (Septoria leaf spot on wheat); conditions: wheat plants cv. Arina, spray 0.02% active ingredient, inoculated one day after application, assessed 11 days after inoculation
[4] = system: Erysiphe graminis; assay: Action against Erysiphe graminis/barley (powdery mildew on barley); conditions: barley plants cv. Express, spray 0.02% active ingredient, inoculated one day after application, assessed after 6 days incubation
[5] = system: Venturia inaequalis; assay: Action against Venturia inaequalis/apple (scab on apple); conditions: apple seedlings cv. McIntosh, spray 0.02% active ingredient, inoculated one day after application, assessed after 4+4+4 days incubation
[6] = system: Podosphaera leucotricha; assay: Action against Podosphaera leucotricha/apple (powdery mildew on apple); conditions: apple seedlings cv. McIntosh, spray 0.002% active ingredient, inoculated one day after application, assessed after 12 days incubation

| Compound | disease incidence [1] | infestation [2] | disease incidence [3] | infestation [4] | infestation [5] | infestation [6] |
| --- | --- | --- | --- | --- | --- | --- |
| Cn1cc(C(=O)Nc2cscc2CC[Si](C)(C)C)c(C(F)(F)F)n1 [Compound 1.14] | < 20% | 0-5% | < 60% | < 20% |  |  |
| Cn1cc(C(=O)Nc2cscc2CC[Si](C)(C)C)c(C(F)F)n1 [Compound 1.16] | < 20% | 0-5% | < 60% | < 20% |  |  |
| Cn1cc(C(=O)Nc2ccsc2[Si](C)(C)C)c(C(F)(F)F)n1 [Compound 2.1] |  | 0-5% |  |  |  |  |
| Cn1cc(C(=O)Nc2ccsc2[Si](C)(C)C)c(C(F)F)n1 [Compound 2.2] |  | 0-5% |  |  |  |  |
| Cn1cc(C(=O)Nc2ccsc2CC[Si](C)(C)C)c(C(F)(F)F)n1 [Compound 2.14] | < 20% | 0-5% | < 60% | < 20% | < 20% | < 20% |
| Cn1cc(C(=O)Nc2ccsc2CC[Si](C)(C)C)c(C(F)F)n1 [Compound 2.16] | < 20% | 0-5% | < 60% | < 20% | < 20% | < 20% |
| C#CCN(C(=O)c1cn(C)nc1C(F)F)c1ccsc1CC[Si](C)(C)C [Compound 2.75] | < 20% | 0-5% | < 60% | < 20% |  |  |
| C=C=CN(C(=O)c1cn(C)nc1C(F)F)c1ccsc1CC[Si](C)(C)C [Compound 2.76] | < 20% | 0-5% | < 60% | < 20% |  |  |
| Cn1cc(C(=O)Nc2ccsc2C#C[Si](C)(C)C)c(C(F)F)n1 [Compound 2.84] |  | 0-5% |  |  |  |  |
| Cn1cc(C(=O)N(C=O)c2ccsc2CC[Si](C)(C)C)c(C(F)F)n1 [Compound 2.85] | < 20% | 0-5% | < 60% | < 20% |  |  |
| Cc1nc(C(F)(F)F)c(C(=O)Nc2ccsc2[Si](C)(C)C)s1 [Compound 6.1] |  | 0-5% |  |  |  |  |
